PubChem BioAssay AID652243, Drosophila RNAi Screening Center – 2013

Test: 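Fly regulators of androgen-dependent reporter output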 (primary screen)
Cells: Drosophila S2R+ cells
Knock-down reagent: long dsRNA against Drosophila genes
Duration: 72 h (48 h, then 24 h hormone)
Conditions: synthetic androgen R1881 at 10 nM for 24 h
Read-out: 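Per-well raw luminescence of the androgen-driven firefly reporter and of the Renilla control, two replicates each, without normalisation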
Scale: firefly reporter light: higher = more light from androgen-responsive reporter; Renilla control light: higher = more constitutive control signal (cell number, transfection)
Hit rule: 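Across duplicate plates, a knock-down whose log firefly/Renilla ratio shifted a set fold down or up from the GFP/LacZ control mean was a hit; the downward cut appears as both 1.5 and 3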
Meaning of the calls: active = hit: reporter lowered or raised; inactive = no hit
In all, the deposit lists about 24,000 reagents; shown is a random part of those that have a named target and a result. Of all reagents, 246 (1%) are marked active. 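Plates not normalised; calls are printed but the firefly/Renilla ratio behind them is not deposited; fold cut for lowering reported inconsistently.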 Raw values are not corrected between plates. The numbers tell different reagents against one gene apart. Names joined by + are all predicted targets of the reagent. The record does not give: the amount of reagent.

target	reagent no.	firefly reporter light, replicate 1	firefly reporter light, replicate 2	Renilla control light, replicate 1	Renilla control light, replicate 2	outcome
CG7458 + CR34262	1	6.83e5	6.17e5	1.82e6	1.98e6	inactive
Pka-R2 (Protein kinase, cAMP-dependent, regulatory subunit type 2)	1	4.35e5	3.52e5	2.40e6	2.47e6	inactive
Pka-R2 (Protein kinase, cAMP-dependent, regulatory subunit type 2)	2	1.03e6	1.14e6	1.49e6	1.37e6	inactive
CG4375	1	1.17e5	1.60e5	8.44e5	8.00e5	inactive
CG4375	2	9.97e5	7.73e5	1.33e6	1.40e6	inactive
CG31681	1	1.82e5	1.75e5	4.29e5	2.10e5	inactive
CG31681	2	4.03e5	4.36e5	8.72e5	8.34e5	inactive
Eig71Ej	1	3.30e5	3.37e5	2.89e6	2.68e6	inactive
Eig71Ej	2	4.61e5	5.96e5	1.64e6	1.87e6	inactive
CG43271	1	6.63e5	6.05e5	1.80e6	2.44e6	inactive
flap (flapper)	1	1.34e5	1.95e5	3.18e5	6.30e5	inactive
flap (flapper)	2	9.49e5	9.44e5	1.80e6	1.52e6	inactive
Gyc76C + CG42637	1	33622	15008	2.67e5	1.12e5	inactive
Gyc76C + CG42637	2					inactive
Gyc76C + CG42637	3					inactive
Rcd5 (Reduction in Cnn dots 5)	1	1.27e6	1.34e6	4.10e5	2.86e5	inactive
Rcd5 (Reduction in Cnn dots 5)	2	2.31e5	2.53e5	1.53e5	2.05e5	inactive
lectin-30A	1	1.27e5	1.32e5	1.21e6	1.33e6	inactive
Etl1	1	1.22e6	1.09e6	1.98e6	2.19e6	inactive
CG8369	1	91086	94287	1.27e6	1.26e6	inactive
CG7133	1	28630	21703	3.89e5	4.02e5	inactive
CG11634	1	1.75e5	1.99e5	1.26e6	1.48e6	inactive
CG32295	1	9.41e5	8.48e5	9.53e5	1.17e6	inactive
Pgls (6-phosphogluconolactonase)	1	4.06e5	4.59e5	3.23e6	2.69e6	inactive

Laid out differently: results already given.
flap (flapper) #1 | firefly reporter light, replicate 1 = 1.34e5; firefly reporter light, replicate 2 = 1.95e5; Renilla control light, replicate 1 = 3.18e5; Renilla control light, replicate 2 = 6.30e5; outcome = inactive
flap (flapper) #2 | firefly reporter light, replicate 1 = 9.49e5; firefly reporter light, replicate 2 = 9.44e5; Renilla control light, replicate 1 = 1.80e6; Renilla control light, replicate 2 = 1.52e6; outcome = inactive
